The list shows a part of the results.
Tests used:
Assay in all cases: log2 fold change, soluble protein after heating vs DMSO (PISA); higher = thermal stabilisation; K562 lysate, 10 uM; active = over 0.2 and 3.5 SD of the protein, either way, in both replicates (recomputed)
vemurafenib = compound: CCCS(=O)(=O)Nc1ccc(F)c(C(=O)c2c[nH]c3ncc(-c4ccc(Cl)cc4)cc23)c1F [vemurafenib]
In short: (§1)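 K562 pellets were dounce-homogenised in PBS pH 7.4 containing 1 mM MgCl2, and the crude extract, at 1 mg/mL protein, was exposed to 10 μM compound for 30 min. Aliquots were heated for 3 min across 48°C-58°C, pooled, brought to 0.5% NP-40 at 4°C and spun at 21,000xg for 90 min, with the supernatant taken as soluble protein. TMTpro 16plex LC-MS/MS with equalised channel sums quantified that protein. Values are log-two fold changes in thermal stability relative to solvent controls, taken from duplicates.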

Amino acid sequences for entries named in this document (tags omitted). A change or cut given only in a name is not applied to a line headed by its entry.
UniProt P30043: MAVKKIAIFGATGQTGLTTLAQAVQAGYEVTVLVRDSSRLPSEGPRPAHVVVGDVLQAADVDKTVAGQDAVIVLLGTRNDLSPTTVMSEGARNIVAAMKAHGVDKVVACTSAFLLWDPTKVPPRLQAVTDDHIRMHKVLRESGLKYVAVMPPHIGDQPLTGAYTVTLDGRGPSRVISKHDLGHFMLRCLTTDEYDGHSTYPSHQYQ
UniProt Q8TD16, whole entry, looked up: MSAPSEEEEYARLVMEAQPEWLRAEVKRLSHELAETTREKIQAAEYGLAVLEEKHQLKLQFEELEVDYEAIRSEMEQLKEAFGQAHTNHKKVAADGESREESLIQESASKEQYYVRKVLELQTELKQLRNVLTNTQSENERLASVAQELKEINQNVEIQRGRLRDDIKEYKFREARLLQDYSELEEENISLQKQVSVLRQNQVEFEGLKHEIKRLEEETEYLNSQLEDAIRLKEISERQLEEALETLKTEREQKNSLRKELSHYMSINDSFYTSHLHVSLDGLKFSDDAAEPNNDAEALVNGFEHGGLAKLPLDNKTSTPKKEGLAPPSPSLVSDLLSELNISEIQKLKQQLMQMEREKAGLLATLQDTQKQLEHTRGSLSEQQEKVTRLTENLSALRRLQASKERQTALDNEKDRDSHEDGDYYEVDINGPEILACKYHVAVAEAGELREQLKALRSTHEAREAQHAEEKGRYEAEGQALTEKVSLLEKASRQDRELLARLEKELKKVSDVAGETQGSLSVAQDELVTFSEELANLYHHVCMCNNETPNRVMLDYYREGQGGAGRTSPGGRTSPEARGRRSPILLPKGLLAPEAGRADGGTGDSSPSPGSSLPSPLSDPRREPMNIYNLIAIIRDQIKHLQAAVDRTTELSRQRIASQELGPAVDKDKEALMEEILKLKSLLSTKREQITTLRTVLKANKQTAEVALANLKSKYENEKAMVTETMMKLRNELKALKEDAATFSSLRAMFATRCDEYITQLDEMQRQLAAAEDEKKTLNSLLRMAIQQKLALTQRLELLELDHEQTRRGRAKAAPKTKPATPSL
UniProt Q9NWV8, whole entry, looked up: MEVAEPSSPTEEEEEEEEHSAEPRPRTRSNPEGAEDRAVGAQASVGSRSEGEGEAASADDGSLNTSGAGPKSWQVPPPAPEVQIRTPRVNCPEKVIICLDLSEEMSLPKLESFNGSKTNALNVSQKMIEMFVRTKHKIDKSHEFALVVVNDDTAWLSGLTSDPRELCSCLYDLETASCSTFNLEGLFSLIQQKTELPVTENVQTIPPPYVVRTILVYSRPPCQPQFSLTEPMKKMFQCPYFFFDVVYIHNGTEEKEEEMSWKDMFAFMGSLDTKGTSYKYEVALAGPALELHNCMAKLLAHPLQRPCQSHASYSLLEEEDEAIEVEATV
UniProt Q9NXR7, whole entry, looked up: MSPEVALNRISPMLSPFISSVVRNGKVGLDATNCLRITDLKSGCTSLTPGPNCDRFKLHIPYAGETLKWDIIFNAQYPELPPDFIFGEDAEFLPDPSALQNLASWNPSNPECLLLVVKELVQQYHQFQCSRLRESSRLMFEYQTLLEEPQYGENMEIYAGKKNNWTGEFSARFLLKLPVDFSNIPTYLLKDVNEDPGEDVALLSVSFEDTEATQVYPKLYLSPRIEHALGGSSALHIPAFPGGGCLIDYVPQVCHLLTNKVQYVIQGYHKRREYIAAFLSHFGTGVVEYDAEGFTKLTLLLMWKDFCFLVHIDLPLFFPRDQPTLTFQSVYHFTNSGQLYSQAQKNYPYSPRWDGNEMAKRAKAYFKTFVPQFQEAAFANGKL
UniProt O14867: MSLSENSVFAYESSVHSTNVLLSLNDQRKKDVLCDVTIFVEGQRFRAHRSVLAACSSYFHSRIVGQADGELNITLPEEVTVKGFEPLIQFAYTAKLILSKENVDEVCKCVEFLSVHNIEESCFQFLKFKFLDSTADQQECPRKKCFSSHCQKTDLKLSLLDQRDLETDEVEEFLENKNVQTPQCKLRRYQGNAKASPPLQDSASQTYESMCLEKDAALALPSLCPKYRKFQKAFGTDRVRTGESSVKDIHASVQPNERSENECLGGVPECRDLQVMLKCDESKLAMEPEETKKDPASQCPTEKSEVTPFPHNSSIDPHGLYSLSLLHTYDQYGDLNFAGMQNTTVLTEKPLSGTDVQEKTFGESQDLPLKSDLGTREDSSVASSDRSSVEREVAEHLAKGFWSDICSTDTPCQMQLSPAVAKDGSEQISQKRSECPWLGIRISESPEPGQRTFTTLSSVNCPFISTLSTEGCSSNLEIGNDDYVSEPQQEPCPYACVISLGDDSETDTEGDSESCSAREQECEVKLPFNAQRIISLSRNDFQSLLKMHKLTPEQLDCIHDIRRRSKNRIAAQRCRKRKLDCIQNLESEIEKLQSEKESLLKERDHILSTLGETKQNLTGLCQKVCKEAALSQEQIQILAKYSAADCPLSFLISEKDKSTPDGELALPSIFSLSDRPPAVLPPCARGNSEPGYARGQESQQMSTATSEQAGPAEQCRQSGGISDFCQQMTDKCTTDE
UniProt O60512: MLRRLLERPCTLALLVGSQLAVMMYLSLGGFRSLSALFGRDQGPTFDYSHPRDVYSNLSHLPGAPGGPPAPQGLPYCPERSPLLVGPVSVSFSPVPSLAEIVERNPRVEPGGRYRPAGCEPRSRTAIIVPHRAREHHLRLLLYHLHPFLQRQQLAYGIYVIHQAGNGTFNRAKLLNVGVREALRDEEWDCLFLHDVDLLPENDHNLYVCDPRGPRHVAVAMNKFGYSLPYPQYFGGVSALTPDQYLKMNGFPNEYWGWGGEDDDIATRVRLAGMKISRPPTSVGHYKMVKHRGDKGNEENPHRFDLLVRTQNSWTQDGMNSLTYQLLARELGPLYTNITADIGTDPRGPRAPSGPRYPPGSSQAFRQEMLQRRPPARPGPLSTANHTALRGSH
UniProt Q07817, whole entry, looked up: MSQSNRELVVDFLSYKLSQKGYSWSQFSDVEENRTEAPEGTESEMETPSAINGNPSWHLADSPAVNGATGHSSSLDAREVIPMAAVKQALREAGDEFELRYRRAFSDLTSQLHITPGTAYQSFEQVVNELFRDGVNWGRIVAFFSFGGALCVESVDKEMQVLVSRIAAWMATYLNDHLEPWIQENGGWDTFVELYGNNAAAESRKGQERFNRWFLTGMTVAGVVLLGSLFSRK
UniProt Q9Y276: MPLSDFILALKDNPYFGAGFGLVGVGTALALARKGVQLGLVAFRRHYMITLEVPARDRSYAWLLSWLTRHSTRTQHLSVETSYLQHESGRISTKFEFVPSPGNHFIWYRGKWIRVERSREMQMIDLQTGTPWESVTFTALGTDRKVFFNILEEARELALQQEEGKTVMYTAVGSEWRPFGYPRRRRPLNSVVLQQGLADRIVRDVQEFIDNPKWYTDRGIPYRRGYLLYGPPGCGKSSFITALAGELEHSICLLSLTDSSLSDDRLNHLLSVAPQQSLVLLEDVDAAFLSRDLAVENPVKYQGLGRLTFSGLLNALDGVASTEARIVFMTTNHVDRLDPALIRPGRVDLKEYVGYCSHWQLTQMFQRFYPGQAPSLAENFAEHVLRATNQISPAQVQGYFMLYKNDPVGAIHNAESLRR
UniProt Q96G01: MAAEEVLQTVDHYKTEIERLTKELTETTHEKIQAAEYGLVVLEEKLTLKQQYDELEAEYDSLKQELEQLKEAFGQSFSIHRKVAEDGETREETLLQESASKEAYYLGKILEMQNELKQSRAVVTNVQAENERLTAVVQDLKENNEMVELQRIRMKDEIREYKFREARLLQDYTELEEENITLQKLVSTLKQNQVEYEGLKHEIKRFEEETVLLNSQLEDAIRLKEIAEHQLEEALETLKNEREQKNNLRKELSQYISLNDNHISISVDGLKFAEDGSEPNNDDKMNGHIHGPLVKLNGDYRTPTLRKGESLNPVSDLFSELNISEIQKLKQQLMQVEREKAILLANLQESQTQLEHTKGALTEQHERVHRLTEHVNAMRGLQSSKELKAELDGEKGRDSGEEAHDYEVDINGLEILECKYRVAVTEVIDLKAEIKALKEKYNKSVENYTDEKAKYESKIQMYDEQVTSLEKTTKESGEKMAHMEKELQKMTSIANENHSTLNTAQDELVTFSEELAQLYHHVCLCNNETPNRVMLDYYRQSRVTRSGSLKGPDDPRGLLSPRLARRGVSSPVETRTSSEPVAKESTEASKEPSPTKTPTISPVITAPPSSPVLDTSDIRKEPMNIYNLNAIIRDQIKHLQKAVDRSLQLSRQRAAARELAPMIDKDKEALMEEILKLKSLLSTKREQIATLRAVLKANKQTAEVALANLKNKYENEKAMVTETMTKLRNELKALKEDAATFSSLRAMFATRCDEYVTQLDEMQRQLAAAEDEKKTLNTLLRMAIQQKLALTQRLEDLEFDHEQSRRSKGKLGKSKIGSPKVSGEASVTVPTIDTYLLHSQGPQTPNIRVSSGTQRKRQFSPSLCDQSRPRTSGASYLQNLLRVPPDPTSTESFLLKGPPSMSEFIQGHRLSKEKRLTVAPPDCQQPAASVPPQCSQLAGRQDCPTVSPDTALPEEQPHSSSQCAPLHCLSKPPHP
UniProt O95817, whole entry, looked up: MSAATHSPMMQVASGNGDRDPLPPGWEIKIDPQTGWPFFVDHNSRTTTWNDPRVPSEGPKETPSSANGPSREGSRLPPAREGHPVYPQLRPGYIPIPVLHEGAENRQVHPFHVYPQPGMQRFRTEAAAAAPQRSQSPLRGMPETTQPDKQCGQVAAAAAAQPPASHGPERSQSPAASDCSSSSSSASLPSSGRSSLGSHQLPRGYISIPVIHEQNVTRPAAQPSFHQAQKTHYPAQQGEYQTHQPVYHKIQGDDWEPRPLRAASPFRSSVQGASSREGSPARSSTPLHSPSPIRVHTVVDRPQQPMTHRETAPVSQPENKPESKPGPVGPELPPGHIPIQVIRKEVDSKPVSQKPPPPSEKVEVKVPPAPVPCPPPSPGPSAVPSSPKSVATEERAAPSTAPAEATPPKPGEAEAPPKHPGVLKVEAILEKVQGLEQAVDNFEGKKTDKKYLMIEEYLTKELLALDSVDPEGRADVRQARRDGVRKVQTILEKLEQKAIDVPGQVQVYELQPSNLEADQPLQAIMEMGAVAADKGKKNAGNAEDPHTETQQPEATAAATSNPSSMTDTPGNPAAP
UniProt P25440, whole entry, looked up: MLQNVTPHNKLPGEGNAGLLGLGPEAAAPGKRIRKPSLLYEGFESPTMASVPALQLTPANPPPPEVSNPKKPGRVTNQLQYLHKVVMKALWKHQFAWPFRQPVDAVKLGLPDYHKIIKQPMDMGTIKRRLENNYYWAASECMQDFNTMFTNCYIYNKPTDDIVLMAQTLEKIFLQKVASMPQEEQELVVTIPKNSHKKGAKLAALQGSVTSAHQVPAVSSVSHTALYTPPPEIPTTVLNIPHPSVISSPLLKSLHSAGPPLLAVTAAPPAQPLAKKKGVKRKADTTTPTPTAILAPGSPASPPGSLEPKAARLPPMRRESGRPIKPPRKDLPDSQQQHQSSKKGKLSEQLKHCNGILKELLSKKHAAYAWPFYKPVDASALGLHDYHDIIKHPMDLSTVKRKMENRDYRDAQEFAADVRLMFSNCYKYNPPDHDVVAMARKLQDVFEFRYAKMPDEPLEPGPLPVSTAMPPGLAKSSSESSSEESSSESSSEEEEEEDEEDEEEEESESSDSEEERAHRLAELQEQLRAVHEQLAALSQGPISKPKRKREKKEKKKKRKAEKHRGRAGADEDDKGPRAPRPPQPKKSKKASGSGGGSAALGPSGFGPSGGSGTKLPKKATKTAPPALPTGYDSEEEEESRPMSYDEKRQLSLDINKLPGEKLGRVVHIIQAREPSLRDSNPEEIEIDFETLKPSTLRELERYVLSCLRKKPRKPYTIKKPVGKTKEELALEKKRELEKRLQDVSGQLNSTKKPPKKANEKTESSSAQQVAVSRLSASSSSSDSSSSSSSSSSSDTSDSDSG
UniProt Q5VW32: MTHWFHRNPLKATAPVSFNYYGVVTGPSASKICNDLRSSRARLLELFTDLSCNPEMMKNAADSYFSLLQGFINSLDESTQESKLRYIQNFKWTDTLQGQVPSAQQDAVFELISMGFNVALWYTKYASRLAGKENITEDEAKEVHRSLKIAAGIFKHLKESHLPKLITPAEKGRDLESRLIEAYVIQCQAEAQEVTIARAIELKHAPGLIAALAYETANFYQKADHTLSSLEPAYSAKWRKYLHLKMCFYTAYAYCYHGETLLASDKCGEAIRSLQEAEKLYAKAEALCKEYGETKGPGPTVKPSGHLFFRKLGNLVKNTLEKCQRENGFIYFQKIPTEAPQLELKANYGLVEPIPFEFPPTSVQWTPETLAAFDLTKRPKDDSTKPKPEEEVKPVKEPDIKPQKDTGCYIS

[1] = compound: CCCS(=O)(=O)Nc1ccc(F)c(C(=O)c2c[nH]c3ncc(Cl)cc23)c1F
In short: as §1

barasertib = compound: CCN(CCCOc1ccc2c(Nc3cc(CC(=O)Nc4cccc(F)c4)[nH]n3)ncnc2c1)CCOP(=O)(O)O [barasertib]
In short: as §1

[2] = compound: CC[C@@H]1C(=O)N(C)c2cnc(Nc3ccc(C(=O)NC4CCN(C)CC4)cc3OC)nc2N1C1CCCC1
In short: as §1

volasertib = compound: CC[C@@H]1C(=O)N(C)c2cnc(Nc3ccc(C(=O)N[C@H]4CC[C@H](N5CCN(CC6CC6)CC5)CC4)cc3OC)nc2N1C(C)C [volasertib]
In short: as §1

[3] = compound: CCn1c(C(=O)N(C2CC2)C2CC2)cc2c3c(ncn3C)c(Nc3cc(C)n(C)n3)nc21
In short: as §1

[4] = compound: CCn1cc(-c2ccnc3[nH]c(-c4cccc(CN(C)C)c4)cc23)c(-c2ccc(NC(=O)N(C)C)cc2)n1
In short: as §1

[5] = compound: CN1CCC(CNc2ccc3ncc(-c4cccc(OC(F)(F)F)c4)n3n2)CC1
In short: as §1

saracatinib = compound: CN1CCN(CCOc2cc(OC3CCOCC3)c3c(Nc4c(Cl)ccc5c4OCO5)ncnc3c2)CC1 [saracatinib]
In short: as §1

sotrastaurin = compound: CN1CCN(c2nc(C3=C(c4c[nH]c5ccccc45)C(=O)NC3=O)c3ccccc3n2)CC1 [sotrastaurin]
In short: as §1

| Target | log2 fold change (vemurafenib) | log2 fold change [1] | log2 fold change (barasertib) | log2 fold change [2] | log2 fold change (volasertib) | log2 fold change [3] | log2 fold change [4] | log2 fold change [5] | log2 fold change (saracatinib) | log2 fold change (sotrastaurin) |
| --- | --- | --- | --- | --- | --- | --- | --- | --- | --- | --- |
| BCAR1 isoform 6 (UniProt P56945) | inactive: 0.038 | inactive: 0.018 | inactive: 0.015 | inactive: -0.065 | inactive: -0.018 | inactive: -0.003 | inactive: 0.064 | inactive: -0.012 | inactive: 0.032 | inactive: -0.038 |
| BIRC2 (UniProt Q13490) | inactive: 0.013 | inactive: 0.06 | inactive: -0.003 | inactive: 0.032 | inactive: 0.038 | inactive: -0.006 | inactive: 0.012 | inactive: 0.031 | inactive: -0.013 | inactive: 0.027 |
| BLVRB (UniProt P30043) | inactive: 0.012 | inactive: -0.012 | inactive: 0.006 | inactive: -0.001 | inactive: -0.027 | inactive: 0.045 | inactive: -0.048 | inactive: 0.002 | inactive: -0.022 | inactive: 0.017 |
| BCOR (UniProt Q6W2J9) | inactive: 0.208 | inactive: 0.012 | inactive: 0.052 | inactive: 0.055 | inactive: 0.001 | inactive: 0.182 | inactive: -0.329 | inactive: 0.134 | inactive: 0.086 | inactive: -0.034 |
| BECN1 (UniProt Q14457) | inactive: 0.002 | inactive: 0.038 | inactive: -0.015 | inactive: -0.01 | inactive: -0.042 | inactive: -0.041 | inactive: -0.006 | inactive: -0.033 | inactive: 0.101 | inactive: 0.005 |
| BNIP2 (UniProt J3KN59) | inactive: 0.025 | inactive: 0.01 | inactive: 0.002 | inactive: 0.11 | inactive: 0.003 | inactive: 0.06 | inactive: -0.07 | inactive: 0.058 | inactive: 0.02 | inactive: 0.01 |
| BSG (UniProt P35613) | inactive: 0.008 | inactive: -0.054 | inactive: -0.016 | inactive: -0.037 | inactive: 0.033 | inactive: 0.039 | inactive: 0.045 | inactive: -0.045 | inactive: -0.002 | inactive: -0.005 |
| BICD2 isoform 2 (UniProt Q8TD16) | inactive: 0 | inactive: 0.01 | inactive: 0.02 | inactive: 0.012 | inactive: 0.002 | inactive: 0.001 | inactive: 0.023 | inactive: -0.03 | inactive: -0.03 | inactive: 0.021 |
| BABAM1 (UniProt Q9NWV8) | inactive: -0.025 | inactive: -0.011 | inactive: -0.017 | inactive: 0.024 | inactive: 0.023 | inactive: 0.045 | inactive: -0.167 | inactive: 0.017 | inactive: 0.013 | inactive: 0.018 |
| BLOC1S5 (UniProt Q8TDH9) | inactive: -0.037 | inactive: 0.023 | inactive: 0.035 | inactive: 0.035 | inactive: 0.03 | inactive: -0.021 | inactive: 0.018 | inactive: 0.046 | inactive: 0.008 | inactive: -0.02 |
| BABAM2 (UniProt Q9NXR7) | inactive: 0.018 | inactive: 0.005 | inactive: 0.024 | inactive: 0.059 | inactive: 0 | inactive: -0.005 | inactive: -0.1 | inactive: 0.065 | inactive: 0.017 | inactive: -0.01 |
| BACH1 (UniProt O14867) | inactive: 0.017 | inactive: 0.034 | inactive: 0.07 | inactive: 0.025 | inactive: -0.014 | inactive: -0.038 | inactive: 0.007 | inactive: 0.008 | inactive: 0.045 | inactive: 0.035 |
| BOLA3 (UniProt Q53S33) | inactive: -0.05 | inactive: 0.019 | inactive: 0.023 | inactive: 0.01 | inactive: 0.031 | inactive: -0.025 | inactive: -0.192 | inactive: 0.044 | inactive: -0.03 | inactive: 0.038 |
| B4GALT3 (UniProt O60512) | inactive: 0 | inactive: -0.151 | inactive: -0.058 | inactive: 0.218 | inactive: -0.023 | inactive: 0.252 | inactive: 0.109 | inactive: -0.079 | inactive: 0.01 | inactive: 0.03 |
| BCL7C isoform 2 (UniProt Q8WUZ0) | inactive: 0.02 | inactive: -0.012 | inactive: 0.029 | inactive: 0.014 | inactive: 0.012 | inactive: 0.05 | inactive: -0.192 | inactive: 0.079 | inactive: 0.039 | inactive: -0.01 |
| BAZ1B (UniProt Q9UIG0) | inactive: -0.037 | inactive: 0.033 | inactive: 0.03 | inactive: -0.028 | inactive: -0.042 | inactive: 0.015 | inactive: -0.039 | inactive: 0.006 | inactive: -0.029 | inactive: 0.007 |
| BRD4 (UniProt O60885) | inactive: 0.049 | inactive: 0.016 | inactive: -0.007 | active: 0.538 | active: 0.217 | inactive: -0.008 | inactive: -0.007 | inactive: 0.037 | inactive: -0.025 | inactive: -0.012 |
| BCL2L1 (UniProt Q07817) | inactive: -0.015 | inactive: 0.001 | inactive: 0.11 | inactive: 0.047 | inactive: 0.033 | inactive: 0.029 | inactive: -0.111 | inactive: 0.099 | inactive: -0.021 | inactive: 0.004 |
| BAG5 isoform 2 (UniProt Q9UL15) | inactive: -0.017 | inactive: 0.034 | inactive: 0.051 | inactive: -0.018 | inactive: -0.033 | inactive: -0.033 | inactive: -0.041 | inactive: 0.026 | inactive: -0.05 | inactive: 0.013 |
| BCS1L (UniProt Q9Y276) | inactive: 0.057 | inactive: 0.021 | inactive: 0.032 | inactive: 0 | inactive: 0.027 | inactive: 0.227 | inactive: 0.176 | inactive: -0.051 | inactive: -0.001 | inactive: -0.101 |
| BAG6 isoform 3 (UniProt P46379) | inactive: -0.044 | inactive: 0.006 | inactive: -0.009 | inactive: -0.004 | inactive: 0.001 | inactive: -0.002 | inactive: 0.016 | inactive: -0.056 | inactive: 0.018 | inactive: -0.006 |
| BICD1 (UniProt Q96G01) | inactive: -0.083 | inactive: -0.004 | inactive: -0.054 | inactive: 0.055 | inactive: -0.008 | inactive: -0.003 | inactive: -0.104 | inactive: 0.054 | inactive: 0.023 | inactive: 0.003 |
| BCKDHA (UniProt P12694) | inactive: 0.083 | inactive: -0.007 | inactive: 0.046 | inactive: 0.126 | inactive: -0.047 | inactive: 0.008 | inactive: 0.042 | inactive: -0.024 | inactive: 0.02 | inactive: -0.005 |
| BAG3 (UniProt O95817) | inactive: 0.004 | inactive: 0.012 | inactive: -0.049 | inactive: 0.043 | inactive: 0.025 | inactive: 0.018 | inactive: 0.131 | inactive: 0.002 | inactive: 0.018 | inactive: -0.022 |
| BRD2 isoform 2 (UniProt P25440) | inactive: 0.033 | inactive: -0.153 | inactive: -0.053 | active: 0.548 | inactive: 0.369 | inactive: 0.042 | active: 0.617 | inactive: -0.066 | inactive: -0.047 | inactive: -0.1 |
| BROX (UniProt Q5VW32) | inactive: 0.009 | inactive: 0.002 | inactive: 0.023 | inactive: -0.121 | inactive: -0.004 | inactive: 0.015 | inactive: 0.035 | inactive: -0.055 | inactive: 0.01 | inactive: -0.016 |
| BTF3L4 (UniProt Q96K17) | inactive: -0.09 | inactive: -0.009 | inactive: 0.009 | inactive: 0.054 | inactive: 0.047 | inactive: -0.037 | inactive: -0.128 | inactive: 0.091 | inactive: -0.004 | inactive: 0.002 |

Part of the list above in another layout:
Target	log2 fold change (vemurafenib)	log2 fold change [1]	log2 fold change (barasertib)	log2 fold change [2]	log2 fold change (volasertib)	log2 fold change [3]	log2 fold change [4]	log2 fold change [5]	log2 fold change (saracatinib)	log2 fold change (sotrastaurin)
BAG5 isoform 2 (UniProt Q9UL15)	inactive: -0.017	inactive: 0.034	inactive: 0.051	inactive: -0.018	inactive: -0.033	inactive: -0.033	inactive: -0.041	inactive: 0.026	inactive: -0.05	inactive: 0.013
BAG3 (UniProt O95817)	inactive: 0.004	inactive: 0.012	inactive: -0.049	inactive: 0.043	inactive: 0.025	inactive: 0.018	inactive: 0.131	inactive: 0.002	inactive: 0.018	inactive: -0.022
